# Results published in the supplement of paper PMC8728848.
# Some of the results follow.
# B1: pullulanase (Streptococcus pyogenes), Q8KLP1 (protein)
# chain: MKKKVNQGSKRYQYLLKKWGIGFVIAATGTVMLGCIPSILTHQVAAKTIVGLARDEAQQGDGNAKSGDGFQSSSKEAKPVLDSSSANPASIAEHHLRMHFKTLPAGESLGSLGLWVWGDVDQPSKDWPNGAITMTKAKKDDYGYYLDVPLAAKHRQQVSYLINNKAGENLSKDQHIPLLTPKMNEVWIDENYHAHAYRPLKKGYLRINYHNQSGHYDNLAVWTFKDVKTPTTDWPNGLDLSHKGPYGAYVDVPLKEGANEIGFLILDKSKTGDAIKVQPKDYLFKELDNHTQVFVKDTDPKVYNNPYYIDQVSLKGAEQTTPNEIKAIFTTLDGLDEDAVKQNIKITDKAGKTVAIDELTLDKDKSVMTLKGDFKAQGAVYTVTFGEVSQVARQSWQLKDKLYAYDGELGATLAKDGSVDLALWSPSADSVKVVVYDKQDQTKVVGQADLTKSDKGVWRAHLTSDSVKGISDYTGYYYLYEITRGQEKVMVLDPYAKSLAAWNDATATDDIKTAKAAFIDPSKLGPTGLDFAKINNFKKREDAIIYEAHVRDFTSDKALEGKLTHPFGTFSAFVEQLDYLKDLGVTHVQLLPVLSYFYANELDKTRSTAYTSSDNNYNWGYDPQHYFALSGMYSANPNDPALRIAELKNLVNEIHKRGMGVIFDVVYNHTARTYLFEDLEPNYYHFMNADGTARESFGGGRLGTTHAMSRRILVDSITYLTREFKVDGFRFDMMGDHDAAAIEQAFKAAKAINPNTIMIGEGWRTYQGDEGKKEIAADQDWMKATNTVGVFSDDIRNTLKSGFPNEGTAAFITGGAKNLEGLFKTIKAQPSNFEADAPGDVVQYIAAHDNLTLHDVIAKSINKDPKVAEEEIHKRIRLGNTMILTAQGTAFIHSGQEYGRTKQLLNPDYKTKVSDDKVPNKATLIDAVAQYPYFIHDSYDSSDAVNHFDWAKATDSIAHPISNQTKAYTQGLIALRRSTDAFTKATKAEVDRDVTLITQAGQDGIQQEDLIMGYQTVASNGDRYAVFVNADNKTRKVVLPQAYRYLLGAQVLADAEQVGVTAIAKPKGVQFTKEGLTIDGLTALVLKVSSKTANPSQQKSQTDNHQTKTPDGSKDLDKSLMTRPKRAKTNQKLPKTGEAPSKGLLAAGVALLLLAISLLMKRQKD
# Tests used:
# Experiment in all cases: glycan array binding signal (z-score within array); higher = stronger binding
# Settings in all cases: glycan notation: IUPAC condensed, linker removed
# Fuc(a1-2)Gal = biological target: Fuc(a1-2)Gal
# Method in brief: (§1)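 Glycan array data were curated from 3228 arrays in the Consortium for Functional Glycomics database and kept only where the protein sequence was available. Glycan names were converted to IUPAC-condensed notation, and columns mapping to the same glycan were averaged. The binding signal is a within-array Z-score, averaged across arrays of the same protein sequence at different concentrations or buffers and across linkers. Negative Z-scores can be read as non-binding.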
# Fuc(a1-2)Gal(b1-3)GalNAc = biological target: Fuc(a1-2)Gal(b1-3)GalNAc
# Method in brief: as §1
# [1] = biological target: Fuc(a1-2)Gal(b1-3)GalNAc(a1-3)[Fuc(a1-2)]Gal(b1-4)Glc
# Method in brief: as §1
# [2] = biological target: Fuc(a1-2)Gal(b1-3)GalNAc(a1-3)[Fuc(a1-2)]Gal(b1-4)GlcNAc
# Method in brief: as §1
# [3] = biological target: Fuc(a1-2)Gal(b1-3)GalNAc(b1-3)Gal
# Method in brief: as §1
# [4] = biological target: Fuc(a1-2)Gal(b1-3)GalNAc(b1-3)Gal(a1-4)Gal(b1-4)Glc
# Method in brief: as §1
# [5] = biological target: Fuc(a1-2)Gal(b1-3)GalNAc(b1-4)[Neu5Ac(a2-3)]Gal(b1-4)Glc
# Method in brief: as §1
# Fuc(a1-2)Gal(b1-3)GlcNAc = biological target: Fuc(a1-2)Gal(b1-3)GlcNAc
# Method in brief: as §1
# [6] = biological target: Fuc(a1-2)Gal(b1-3)GlcNAc(b1-2)Man(a1-3)[Fuc(a1-2)Gal(b1-3)GlcNAc(b1-2)Man(a1-6)]Man(b1-4)GlcNAc(b1-4)GlcNAc
# Method in brief: as §1
# [7] = biological target: Fuc(a1-2)Gal(b1-3)GlcNAc(b1-2)Man(a1-3)[Fuc(a1-2)Gal(b1-3)GlcNAc(b1-2)Man(a1-6)]Man(b1-4)GlcNAc(b1-4)[Fuc(a1-6)]GlcNAc
# Method in brief: as §1
# [8] = biological target: Fuc(a1-2)Gal(b1-3)GlcNAc(b1-3)Gal(b1-4)Glc
# Method in brief: as §1
# [9] = biological target: Fuc(a1-2)Gal(b1-3)GlcNAc(b1-3)GalNAc
# Method in brief: as §1
# [10] = biological target: Fuc(a1-2)Gal(b1-3)GlcNAc(b1-3)[Fuc(a1-3)[Gal(b1-4)]GlcNAc(b1-6)]Gal(b1-4)Glc
# Method in brief: as §1
# [11] = biological target: Fuc(a1-2)Gal(b1-3)GlcNAc(b1-3)[Gal(b1-4)GlcNAc(b1-6)]Gal(b1-4)Glc
# Method in brief: as §1
# [12] = biological target: Fuc(a1-2)Gal(b1-3)[Fuc(a1-4)]GlcNAc
# Method in brief: as §1
# [13] = biological target: Fuc(a1-2)Gal(b1-3)[Fuc(a1-4)]GlcNAc(b1-2)Man(a1-3)[Fuc(a1-2)Gal(b1-3)[Fuc(a1-4)]GlcNAc(b1-2)Man(a1-6)]Man(b1-4)GlcNAc(b1-4)GlcNAc
# Method in brief: as §1
# [14] = biological target: Fuc(a1-2)Gal(b1-3)[Fuc(a1-4)]GlcNAc(b1-3)[Fuc(a1-3)[Gal(b1-4)]GlcNAc(b1-6)]Gal(b1-4)Glc
# Method in brief: as §1
# [15] = biological target: Fuc(a1-2)Gal(b1-3)[Fuc(a1-4)]GlcNAc(b1-3)[Gal(b1-4)GlcNAc(b1-6)]Gal(b1-4)Glc
# Method in brief: as §1
# Fuc(a1-2)Gal(b1-4)Glc = biological target: Fuc(a1-2)Gal(b1-4)Glc
# Method in brief: as §1
# Fuc(a1-2)Gal(b1-4)Glc6S = biological target: Fuc(a1-2)Gal(b1-4)Glc6S
# Method in brief: as §1
# Fuc(a1-2)Gal(b1-4)GlcNAc = biological target: Fuc(a1-2)Gal(b1-4)GlcNAc
# Method in brief: as §1
# [16] = biological target: Fuc(a1-2)Gal(b1-4)GlcNAc(b1-2)Man(a1-3)[Fuc(a1-2)Gal(b1-4)GlcNAc(b1-2)Man(a1-6)]Man(b1-4)GlcNAc(b1-4)GlcNAc
# Method in brief: as §1
# [17] = biological target: Fuc(a1-2)Gal(b1-4)GlcNAc(b1-2)Man(a1-3)[Fuc(a1-2)Gal(b1-4)GlcNAc(b1-2)Man(a1-6)]Man(b1-4)GlcNAc(b1-4)[Fuc(a1-6)]GlcNAc
# Method in brief: as §1
# [18] = biological target: Fuc(a1-2)Gal(b1-4)GlcNAc(b1-2)[Fuc(a1-2)Gal(b1-4)GlcNAc(b1-4)]Man(a1-3)[Fuc(a1-2)Gal(b1-4)GlcNAc(b1-2)Man(a1-6)]Man(b1-4)GlcNAc(b1-4)GlcNAc
# Method in brief: as §1
# [19] = biological target: Fuc(a1-2)Gal(b1-4)GlcNAc(b1-3)Gal(b1-4)GlcNAc
# Method in brief: as §1
# [20] = biological target: Fuc(a1-2)Gal(b1-4)GlcNAc(b1-3)Gal(b1-4)GlcNAc(b1-3)Gal(b1-4)GlcNAc
# Method in brief: as §1
# [21] = biological target: Fuc(a1-2)Gal(b1-4)GlcNAc(b1-3)GalNAc
# Method in brief: as §1
# [22] = biological target: Fuc(a1-2)Gal(b1-4)GlcNAc6S
# Method in brief: as §1
# [23] = biological target: Fuc(a1-2)Gal(b1-4)[Fuc(a1-3)]GlcNAc
# Method in brief: as §1
# [24] = biological target: Fuc(a1-2)Gal(b1-4)[Fuc(a1-3)]GlcNAc(b1-2)Man(a1-3)[Fuc(a1-2)Gal(b1-4)[Fuc(a1-3)]GlcNAc(b1-2)Man(a1-6)]Man(b1-4)GlcNAc(b1-4)GlcNAc
# Method in brief: as §1
# [25] = biological target: Fuc(a1-2)Gal(b1-4)[Fuc(a1-3)]GlcNAc(b1-2)[Fuc(a1-2)Gal(b1-4)[Fuc(a1-3)]GlcNAc(b1-4)]Man(a1-3)[Fuc(a1-2)Gal(b1-4)[Fuc(a1-3)]GlcNAc(b1-2)Man(a1-6)]Man(b1-4)GlcNAc(b1-4)GlcNAc
# Method in brief: as §1
# [26] = biological target: Fuc(a1-2)Gal(b1-4)[Fuc(a1-3)]GlcNAc(b1-3)Gal(b1-4)[Fuc(a1-3)]GlcNAc
# Method in brief: as §1
# [27] = biological target: Fuc(a1-2)Gal(b1-4)[Fuc(a1-3)]GlcNAc(b1-3)Gal(b1-4)[Fuc(a1-3)]GlcNAc(b1-3)Gal(b1-4)[Fuc(a1-3)]GlcNAc
# Method in brief: as §1
# [28] = biological target: Fuc(a1-2)Gal(b1-4)[Fuc(a1-3)]GlcNAc(b1-3)GalNAc
# Method in brief: as §1
# Fuc(a1-2)Gal6S(b1-4)Glc = biological target: Fuc(a1-2)Gal6S(b1-4)Glc
# Method in brief: as §1
# [29] = biological target: Fuc(a1-2)Gal6S(b1-4)Glc6S
# Method in brief: as §1
# [30] = biological target: Fuc(a1-2)Gal6S(b1-4)GlcNAc
# Method in brief: as §1
# Fuc(a1-2)[Gal(a1-3)]Gal = biological target: Fuc(a1-2)[Gal(a1-3)]Gal
# Method in brief: as §1
# [31] = biological target: Fuc(a1-2)[Gal(a1-3)]Gal(b1-3)GlcNAc
# Method in brief: as §1
# [32] = biological target: Fuc(a1-2)[Gal(a1-3)]Gal(b1-3)GlcNAc(b1-2)Man(a1-3)[Fuc(a1-2)[Gal(a1-3)]Gal(b1-3)GlcNAc(b1-2)Man(a1-6)]Man(b1-4)GlcNAc(b1-4)GlcNAc
# Method in brief: as §1
# [33] = biological target: Fuc(a1-2)[Gal(a1-3)]Gal(b1-3)GlcNAc(b1-3)GalNAc
# Method in brief: as §1
# [34] = biological target: Fuc(a1-2)[Gal(a1-3)]Gal(b1-4)Glc
# Method in brief: as §1
# [35] = biological target: Fuc(a1-2)[Gal(a1-3)]Gal(b1-4)GlcNAc
# Method in brief: as §1
# [36] = biological target: Fuc(a1-2)[Gal(a1-3)]Gal(b1-4)GlcNAc(b1-2)Man(a1-3)[Fuc(a1-2)[Gal(a1-3)]Gal(b1-4)GlcNAc(b1-2)Man(a1-6)]Man(b1-4)GlcNAc(b1-4)GlcNAc
# Method in brief: as §1
# [37] = biological target: Fuc(a1-2)[Gal(a1-3)]Gal(b1-4)GlcNAc(b1-2)Man(a1-3)[Fuc(a1-2)[Gal(a1-3)]Gal(b1-4)GlcNAc(b1-2)Man(a1-6)]Man(b1-4)GlcNAc(b1-4)[Fuc(a1-6)]GlcNAc
# Method in brief: as §1
binder,measurement,setting,value
B1,glycan array binding signal (z-score),Fuc(a1-2)Gal,-0.905
same,glycan array binding signal (z-score),Fuc(a1-2)Gal(b1-3)GalNAc,0.446
same,glycan array binding signal (z-score),[1],-0.434
same,glycan array binding signal (z-score),[2],-0.378
same,glycan array binding signal (z-score),[3],0.497
same,glycan array binding signal (z-score),[4],-0.524
same,glycan array binding signal (z-score),[5],-0.519
same,glycan array binding signal (z-score),Fuc(a1-2)Gal(b1-3)GlcNAc,-1.34
same,glycan array binding signal (z-score),[6],-0.481
same,glycan array binding signal (z-score),[7],1.26
same,glycan array binding signal (z-score),[8],-1.02
same,glycan array binding signal (z-score),[9],-0.031
same,glycan array binding signal (z-score),[10],0.059
same,glycan array binding signal (z-score),[11],-0.997
same,glycan array binding signal (z-score),[12],0.453
same,glycan array binding signal (z-score),[13],0.391
same,glycan array binding signal (z-score),[14],4.09
same,glycan array binding signal (z-score),[15],-1.13
same,glycan array binding signal (z-score),Fuc(a1-2)Gal(b1-4)Glc,0.065
same,glycan array binding signal (z-score),Fuc(a1-2)Gal(b1-4)Glc6S,-0.911
same,glycan array binding signal (z-score),Fuc(a1-2)Gal(b1-4)GlcNAc,0.066
same,glycan array binding signal (z-score),[16],-0.238
same,glycan array binding signal (z-score),[17],-0.531
same,glycan array binding signal (z-score),[18],0.076
same,glycan array binding signal (z-score),[19],0.225
same,glycan array binding signal (z-score),[20],1.6
same,glycan array binding signal (z-score),[21],1.22
same,glycan array binding signal (z-score),[22],1.06
same,glycan array binding signal (z-score),[23],-0.734
same,glycan array binding signal (z-score),[24],1.48
same,glycan array binding signal (z-score),[25],0.911
same,glycan array binding signal (z-score),[26],0.134
same,glycan array binding signal (z-score),[27],2.22
same,glycan array binding signal (z-score),[28],3.14
same,glycan array binding signal (z-score),Fuc(a1-2)Gal6S(b1-4)Glc,0.263
same,glycan array binding signal (z-score),[29],0.585
same,glycan array binding signal (z-score),[30],-0.286
same,glycan array binding signal (z-score),Fuc(a1-2)[Gal(a1-3)]Gal,0.255
same,glycan array binding signal (z-score),[31],-0.132
same,glycan array binding signal (z-score),[32],-0.501
same,glycan array binding signal (z-score),[33],0.215
same,glycan array binding signal (z-score),[34],-0.403
same,glycan array binding signal (z-score),[35],-0.912
same,glycan array binding signal (z-score),[36],-0.328
same,glycan array binding signal (z-score),[37],-0.759

# 3 successive records out of the list so far, for reference:
binder,measurement,setting,value
B1,glycan array binding signal (z-score),[14],4.09
same,glycan array binding signal (z-score),[15],-1.13
same,glycan array binding signal (z-score),Fuc(a1-2)Gal(b1-4)Glc,0.065
